What all share (test): affinity purification with mass spectrometry
Test [1] addresses T1, GFP-Rubicon (mouse Rubicon, stably expressed in MEFs) (mouse) (UniProt Q80U62).
T1 sequence: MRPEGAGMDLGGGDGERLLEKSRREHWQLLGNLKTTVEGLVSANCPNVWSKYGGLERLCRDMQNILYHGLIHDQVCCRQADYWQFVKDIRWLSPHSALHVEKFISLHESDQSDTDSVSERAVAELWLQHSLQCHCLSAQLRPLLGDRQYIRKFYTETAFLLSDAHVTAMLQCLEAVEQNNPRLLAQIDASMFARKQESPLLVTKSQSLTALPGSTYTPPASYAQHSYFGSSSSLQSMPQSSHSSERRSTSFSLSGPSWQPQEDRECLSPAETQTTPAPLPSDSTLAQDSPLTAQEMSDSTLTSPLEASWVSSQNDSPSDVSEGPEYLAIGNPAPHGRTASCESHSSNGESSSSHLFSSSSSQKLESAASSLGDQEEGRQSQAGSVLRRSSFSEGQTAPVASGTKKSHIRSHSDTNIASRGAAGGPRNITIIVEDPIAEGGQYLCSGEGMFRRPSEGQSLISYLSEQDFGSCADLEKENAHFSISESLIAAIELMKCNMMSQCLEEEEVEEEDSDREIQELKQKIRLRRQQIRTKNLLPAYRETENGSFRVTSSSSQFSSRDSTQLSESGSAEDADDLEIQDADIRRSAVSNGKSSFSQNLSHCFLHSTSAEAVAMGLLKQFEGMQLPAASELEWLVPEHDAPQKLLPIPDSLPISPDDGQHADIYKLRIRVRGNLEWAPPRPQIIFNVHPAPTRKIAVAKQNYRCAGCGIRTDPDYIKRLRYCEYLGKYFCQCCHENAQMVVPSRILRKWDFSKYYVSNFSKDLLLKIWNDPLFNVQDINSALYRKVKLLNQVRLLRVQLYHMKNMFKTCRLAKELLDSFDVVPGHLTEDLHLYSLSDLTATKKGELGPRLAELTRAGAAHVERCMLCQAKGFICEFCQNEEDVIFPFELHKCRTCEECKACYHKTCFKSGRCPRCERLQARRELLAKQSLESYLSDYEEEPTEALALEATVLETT

Amino acid sequences for entries named in this document (tags omitted).
UniProt Q9CR39: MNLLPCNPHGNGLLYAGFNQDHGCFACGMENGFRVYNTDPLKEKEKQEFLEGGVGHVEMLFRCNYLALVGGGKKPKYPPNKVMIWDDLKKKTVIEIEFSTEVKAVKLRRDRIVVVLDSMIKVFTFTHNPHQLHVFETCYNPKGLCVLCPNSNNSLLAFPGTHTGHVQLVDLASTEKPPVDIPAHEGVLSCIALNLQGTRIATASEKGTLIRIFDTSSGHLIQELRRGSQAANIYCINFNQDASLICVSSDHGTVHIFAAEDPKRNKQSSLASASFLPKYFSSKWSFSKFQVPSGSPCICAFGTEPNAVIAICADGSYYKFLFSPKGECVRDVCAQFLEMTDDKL
UniProt Q9CX00: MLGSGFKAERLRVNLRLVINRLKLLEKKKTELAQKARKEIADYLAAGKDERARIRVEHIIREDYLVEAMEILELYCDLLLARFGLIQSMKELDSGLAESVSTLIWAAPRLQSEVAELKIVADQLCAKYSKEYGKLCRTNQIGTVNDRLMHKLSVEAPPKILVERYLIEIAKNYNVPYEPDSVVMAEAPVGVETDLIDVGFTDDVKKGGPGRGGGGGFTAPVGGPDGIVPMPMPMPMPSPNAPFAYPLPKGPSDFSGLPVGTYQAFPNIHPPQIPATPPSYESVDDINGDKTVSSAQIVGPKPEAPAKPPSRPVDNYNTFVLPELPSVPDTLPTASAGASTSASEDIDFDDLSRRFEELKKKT
UniProt Q99LI8: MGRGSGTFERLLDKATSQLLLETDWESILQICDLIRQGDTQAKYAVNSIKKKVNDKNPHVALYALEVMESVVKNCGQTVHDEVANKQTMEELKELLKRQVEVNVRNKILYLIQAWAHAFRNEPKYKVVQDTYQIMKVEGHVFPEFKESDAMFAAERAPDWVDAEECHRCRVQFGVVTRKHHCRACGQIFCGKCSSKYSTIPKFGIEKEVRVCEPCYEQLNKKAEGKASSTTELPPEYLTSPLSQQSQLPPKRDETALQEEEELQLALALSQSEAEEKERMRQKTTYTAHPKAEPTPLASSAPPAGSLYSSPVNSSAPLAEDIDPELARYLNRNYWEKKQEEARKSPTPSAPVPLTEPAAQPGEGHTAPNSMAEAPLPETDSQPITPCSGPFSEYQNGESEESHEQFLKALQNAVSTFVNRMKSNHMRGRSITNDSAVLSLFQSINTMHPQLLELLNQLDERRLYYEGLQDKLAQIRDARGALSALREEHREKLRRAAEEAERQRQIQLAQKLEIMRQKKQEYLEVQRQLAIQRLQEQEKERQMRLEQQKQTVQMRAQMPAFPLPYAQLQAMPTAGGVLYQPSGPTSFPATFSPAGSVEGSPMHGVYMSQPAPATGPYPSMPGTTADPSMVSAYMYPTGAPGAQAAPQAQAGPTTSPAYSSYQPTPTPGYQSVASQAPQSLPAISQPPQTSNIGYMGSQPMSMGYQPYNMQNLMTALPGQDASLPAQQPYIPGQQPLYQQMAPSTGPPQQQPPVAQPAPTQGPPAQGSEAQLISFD

Test [2] concerns the target T2, GFP-WIPI2d (stably expressed in MEFs) (UniProt Q9Y4P8).
T2 sequence: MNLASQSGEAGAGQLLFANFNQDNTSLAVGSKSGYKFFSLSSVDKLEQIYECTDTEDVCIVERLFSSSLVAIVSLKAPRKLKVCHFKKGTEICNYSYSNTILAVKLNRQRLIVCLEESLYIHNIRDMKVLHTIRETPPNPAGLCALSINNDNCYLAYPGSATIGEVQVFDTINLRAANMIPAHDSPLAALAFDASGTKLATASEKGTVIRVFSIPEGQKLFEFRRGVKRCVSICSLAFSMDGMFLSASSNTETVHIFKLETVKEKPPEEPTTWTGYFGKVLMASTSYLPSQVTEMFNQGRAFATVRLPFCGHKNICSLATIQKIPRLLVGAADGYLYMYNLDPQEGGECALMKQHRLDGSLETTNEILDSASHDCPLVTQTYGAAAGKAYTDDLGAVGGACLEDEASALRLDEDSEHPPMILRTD

Test [3] has as its target T1, GFP-Rubicon (mouse Rubicon, stably expressed in MEFs) (mouse). This is another data set of the same source.
The target of test [4] is T3, Rubicon (bait of the interactome analysis in HeLa Kyoto cells) (UniProt Q92622).
T3 sequence: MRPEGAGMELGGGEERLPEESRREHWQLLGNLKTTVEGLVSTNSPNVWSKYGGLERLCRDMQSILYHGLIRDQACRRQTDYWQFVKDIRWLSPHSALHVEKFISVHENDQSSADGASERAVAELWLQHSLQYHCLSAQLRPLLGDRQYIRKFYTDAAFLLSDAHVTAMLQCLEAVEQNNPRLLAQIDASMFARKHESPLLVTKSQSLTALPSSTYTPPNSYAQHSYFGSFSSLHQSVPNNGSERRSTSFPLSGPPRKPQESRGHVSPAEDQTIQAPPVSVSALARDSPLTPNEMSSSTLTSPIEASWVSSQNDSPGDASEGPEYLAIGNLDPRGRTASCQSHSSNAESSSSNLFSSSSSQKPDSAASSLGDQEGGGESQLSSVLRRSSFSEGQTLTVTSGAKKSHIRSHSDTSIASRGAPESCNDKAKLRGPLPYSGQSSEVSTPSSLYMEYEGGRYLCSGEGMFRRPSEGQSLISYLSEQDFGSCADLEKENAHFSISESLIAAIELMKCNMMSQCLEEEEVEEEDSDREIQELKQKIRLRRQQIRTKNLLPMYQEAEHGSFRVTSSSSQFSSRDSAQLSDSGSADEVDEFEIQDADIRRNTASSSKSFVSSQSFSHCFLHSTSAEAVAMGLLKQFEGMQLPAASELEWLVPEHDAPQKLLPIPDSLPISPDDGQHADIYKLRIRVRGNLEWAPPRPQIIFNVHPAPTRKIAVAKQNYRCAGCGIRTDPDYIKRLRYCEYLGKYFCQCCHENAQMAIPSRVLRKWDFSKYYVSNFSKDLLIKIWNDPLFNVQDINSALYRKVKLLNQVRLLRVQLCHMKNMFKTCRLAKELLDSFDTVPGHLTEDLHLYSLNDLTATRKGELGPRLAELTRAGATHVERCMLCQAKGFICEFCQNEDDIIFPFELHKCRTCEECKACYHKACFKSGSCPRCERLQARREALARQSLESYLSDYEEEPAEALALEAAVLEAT

Test [5] has as its target T2, GFP-WIPI2d (stably expressed in MEFs). The source holds these as a separate data set.

Where two headings read alike, the source gives them in different places. No constants are given. Whether binding was seen depends on the method and setting. Binding seen in cells or lysates may run through a third protein. A yes stands for co-enrichment or nearness to the bait. Other partners may have been found. For some of these results: Tags and fused reporters may be left off the sequences shown.

For seven molecules, binding results are on record in paper doi:10.1101/2024.05.08.593233.

In the case of “WIPI3 (endogenous, MEFs) (from UniProt Q9CR39 1-344)”, the binding result in test [1] is given as “binds”. Consider “IST1 (endogenous, MEFs) (from UniProt Q9CX00 1-362)”, for which, in test [2], the binding result is on record as “binds”. Still for that read-out and setting: next, “HRS (endogenous, MEFs) (from UniProt Q99LI8 1-775)”: “binds”.

B1: WIPI2 (endogenous, MEFs) (protein, UniProt Q80W47 1-445)
chain: MNLASQSGEAGAGQLLFANFNQDNTSLAVGSKSGYKFFSLSSVDKLEQIYECTDTEDVCIVERLFSSSLVAIVSLKAPRKLKVCHFKKGTEICNYSYSNTILAVKLNRQRLIVCLEESLYIHNIRDMKVLHTIRETPPNPAGLCALSINNDNCYLAYPGSASIGEVQVFDTINLRAANMIPAHDSPLAALAFDASGTKLATASEKGTVIRVFSIPEGQKLFEFRRGVKRCVSICSLAFSMDGMFLSASSNTETVHIFKLEAVREKPPEEPTTWTGYFGKVLMASTSYLPSQVTEMFNQGRAFATVRLPFCGHKNICSLTTIQKIPRLLVGASDGYLYMYNLDPQEGGECALMRQHRLDGSMETTSEIVDSASHDCPLATQTYGTAAAKGAYVPSSPTRLGKGQDANLEAYTDDLGAVGGACLEDEASALRLDEDSEHPPMILRTD
B1: the binding entry in test [3] is “binds”.

B2: WIPI2 (endogenous, HeLa Kyoto) (protein, UniProt Q9Y4P8 1-454)
chain: MNLASQSGEAGAGQLLFANFNQDNTEVKGASRAAGLGRRAVVWSLAVGSKSGYKFFSLSSVDKLEQIYECTDTEDVCIVERLFSSSLVAIVSLKAPRKLKVCHFKKGTEICNYSYSNTILAVKLNRQRLIVCLEESLYIHNIRDMKVLHTIRETPPNPAGLCALSINNDNCYLAYPGSATIGEVQVFDTINLRAANMIPAHDSPLAALAFDASGTKLATASEKGTVIRVFSIPEGQKLFEFRRGVKRCVSICSLAFSMDGMFLSASSNTETVHIFKLETVKEKPPEEPTTWTGYFGKVLMASTSYLPSQVTEMFNQGRAFATVRLPFCGHKNICSLATIQKIPRLLVGAADGYLYMYNLDPQEGGECALMKQHRLDGSLETTNEILDSASHDCPLVTQTYGAAAGKGTYVPSSPTRLAYTDDLGAVGGACLEDEASALRLDEDSEHPPMILRTD
B2: the binding result in test [4] is on record as “binds”.

B3: VPS4B (endogenous, MEFs) (protein, UniProt P46467 1-444)
chain: MASTNTNLQKAIDLASKAAQEDKAGNYEEALQLYQHAVQYFLHVVKYEAQGDKAKQSIRAKCTEYLDRAEKLKEYLKKKEKKPQKPVKEEQSGPVDEKGNDSDGEAESDDPEKKKLQNQLQGAIVIERPNVKWSDVAGLEGAKEALKEAVILPIKFPHLFTGKRTPWRGILLFGPPGTGKSYLAKAVATEANNSTFFSISSSDLVSKWLGESEKLVKNLFQLARENKPSIIFIDEIDSLCGSRSENESEAARRIKTEFLVQMQGVGVDNDGILVLGATNIPWVLDSAIRRRFEKRIYIPLPEAHARAAMFRLHLGSTQNSLTEADFQELGRKTDGYSGADISIIVRDALMQPVRKVQSATHFKKVRGPSRADPNCIVNDLLTPCSPGDPGAIEMTWMDVPGDKLLEPVVSMWDMLRSLSSTKPTVNEQDLLKLKKFTEDFGQEG
For B3, the binding entry in test [5] is listed as “binds”.

B4: VTA1 (endogenous, MEFs) (protein, UniProt Q9CR26 1-309)
chain: MAALAPLPPLPAQFKSIQHHLRTAQEHDKRDPVVAYYCRLYAMQTGMKIDSKTPECRKFLSKLMDQLEALKKQLGDNEAVTQEIVGCAHLENYALKMFLYADNEDRAGRFHKNMIKSFYTASLLIDVITVFGELTDENVKHRKYARWKATYIHNCLKNGETPQAGPVGIEEENDVEENEDVGATSLPTQPPQPSSSSAYDPSNLAPGSYSGIQIPPGAHAPANTPAEVPHSTGVTSNAVQPSPQTVPAAPAVDPDLYTASQGDIRLTPEDFARAQKYCKYAGSALQYEDVGTAVQNLQKALRLLTTGRE
For B4, the binding result in test [5] was “binds”.
